{
  "sequences": {"note": "By UniProt entry, the sequences of proteins in these tests, tags left out.", "UniProt O09106": "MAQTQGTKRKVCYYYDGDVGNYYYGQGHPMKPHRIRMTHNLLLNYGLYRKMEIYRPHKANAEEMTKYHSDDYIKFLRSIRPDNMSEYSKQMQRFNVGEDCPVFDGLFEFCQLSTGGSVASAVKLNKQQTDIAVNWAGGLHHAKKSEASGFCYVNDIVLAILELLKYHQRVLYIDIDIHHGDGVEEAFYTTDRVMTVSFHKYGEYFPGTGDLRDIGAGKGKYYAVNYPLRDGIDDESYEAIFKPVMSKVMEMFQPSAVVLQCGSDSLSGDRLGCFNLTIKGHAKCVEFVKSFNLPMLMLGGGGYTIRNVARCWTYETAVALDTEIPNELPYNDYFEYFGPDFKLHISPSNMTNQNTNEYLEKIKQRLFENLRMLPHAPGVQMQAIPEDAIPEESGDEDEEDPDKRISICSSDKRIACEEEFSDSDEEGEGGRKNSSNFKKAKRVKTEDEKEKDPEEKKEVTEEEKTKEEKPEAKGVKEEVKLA", "UniProt P70288": "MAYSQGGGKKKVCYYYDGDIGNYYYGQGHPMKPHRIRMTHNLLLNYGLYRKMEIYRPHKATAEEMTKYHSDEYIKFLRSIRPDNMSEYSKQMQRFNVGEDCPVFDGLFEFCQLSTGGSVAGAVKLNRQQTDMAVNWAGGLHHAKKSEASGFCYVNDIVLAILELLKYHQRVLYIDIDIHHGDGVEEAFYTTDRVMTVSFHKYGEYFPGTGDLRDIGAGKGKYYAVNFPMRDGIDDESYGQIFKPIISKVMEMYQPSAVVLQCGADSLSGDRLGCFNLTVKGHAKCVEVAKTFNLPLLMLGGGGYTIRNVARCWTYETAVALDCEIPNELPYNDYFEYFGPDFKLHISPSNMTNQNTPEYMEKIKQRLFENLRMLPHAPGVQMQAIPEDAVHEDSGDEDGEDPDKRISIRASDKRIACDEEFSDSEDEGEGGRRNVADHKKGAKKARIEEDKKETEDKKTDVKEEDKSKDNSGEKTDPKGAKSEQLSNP"},
  "source": "paper PMC5963345",
  "key": {"[1]": {"molecular_target": "HDAC1 (mouse (endogenous in mouse brain tissue)) (UniProt O09106)", "assay": "co-IP; mouse brain tissue homogenates (100 ug protein) of sham, MCAO 24 h and MCAO 3 d groups, diluted in RIPA buffer; precipitated with antibody (methods: HDAC1 or HDAC2 antibody; legend: TOPK antibody) on Protein G Sepharose, 4°C overnight; Western blot"}, "[2]": {"molecular_target": "HDAC2 (mouse (endogenous in mouse brain tissue)) (UniProt P70288)", "assay": "co-IP; mouse brain tissue homogenates (100 ug protein) of sham, MCAO 24 h and MCAO 3 d groups, diluted in RIPA buffer; precipitated with antibody (methods: HDAC1 or HDAC2 antibody; legend: TOPK antibody) on Protein G Sepharose, 4°C overnight; Western blot"}},
  "note": "These are yes or no findings as the source states them, for the method shown. In cells and extracts the contact can be indirect. Some binding calls cover weakened binding; strength is not graded here.",
  "data": [
    {"binder": "T-LAK-cell-originated protein kinase (TOPK) (protein, UniProt Q9JJ78 1-330) MEGINNFKTPNKSEKRKSVLCSTPCVNIPASPFMQKLGFGTGVSVYLMKRSPRGLSHSPWAVKKISLLCDDHYRTVYQKRLTDEAKILKNLNHPNIIGYRAFTEASDGSLCLAMEYGGEKSLNDLIEERNKDSGSPFPAAVILRVALHMARGLKYLHQEKKLLHGDIKSSNVVIKGDFETIKICDVGVSLPLDENMTVTDPEACYIGTEPWKPKEALEENGIITDKADVFAFGLTLWEMMTLCIPHVNLPDDDVDEDATFDESDFDDEAYYAALGTRPSINMEELDDSYQKAIELFCVCTNEDPKDRPSAAHIVEALELDGQCCGLSSKH", "values": [
      {"measurement": "binding", "setting": "[1]", "value": "binds"},
      {"measurement": "binding", "setting": "[2]", "value": "binds"}
    ]}
  ]
}
